Source: publication PMC3257078 (International Journal of Molecular Sciences, 2011)
* marks the point of attachment. Boc = CC(C)(C)OC(=O)*

experiment: peptide synthesis; details: late stage modification step

Substance	step yield [%]
H-Phe-Ala-Met-Met-Met-OH	25
H-Phe-Gly-Met-Met-Met-OH	20
H-Tyr-Ala-Met-Met-Met-OH	24

experiment: general procedure: solution-phase peptide synthesis; DCC/HOSu; HATU/NMM; ClOCOiBu/NMM; details: coupling step

Substance	step yield [%]
Boc-FAMM-OH	54
Boc-FAMMM-OH	19
Boc-FGMMM-OH	45
Boc-Phe-Ada-Met-Met-Met-OH	63
Boc-Y(Boc)AMMM-OH	19

same assay, conditions: late stage modification step

Substance	step yield [%]
H-Phe-Ada-Met(O)-Met(O)-Met(O)-OH	30
H-Phe-Ala-Met-Met-OH	34
